{"source": "PubChem BioAssay AID504791 – Drosophila RNAi Screening Center, 2011", "assay": "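Factors in Argonaute-based small RNA production and activity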 (primary screen)", "cell system": "Drosophila S2-derived reporter cells", "knock-down reagent": "long dsRNA against Drosophila genes, about 150-250 ng dsRNA per well (siRNA assay); about 80-120 ng (miRNA assay)", "timing": "about 5 days (siRNA assay); about 4 days (miRNA assay)", "challenge": "copper sulfate induction of reporters: 25 µM (siRNA assay); 200 mM stated (miRNA assay), 1-2 days before reading", "read-out": "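Dual luciferase assay: Renilla to firefly signal ratio in each well, scaled to the mean ratio of its plate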", "active means": "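a well was a first-pass pick when its plate-scaled ratio rose above 1.5 (siRNA assay) or 1.6 (miRNA assay), or dropped below 0.6; a gene counted only if two separate dsRNAs agreed on retest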", "note": "In all, the deposit lists about 23,000 reagents; below is a random part of those that have a named target and a result. In the full data, 199 (0.86%) were called active. 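Plate-scaled ratios behind the calls are not deposited; printed light signals are raw; many rows marked increased or decreased are still called inactive.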 Entries without a mark were called inactive. Names joined by + are all predicted targets of the reagent. The record does not give: the direction of the score."}
{"Target gene":"CG17075","dsRNA":"DRSC00483","stable assay Renilla, run 1 (luminescence)":10403,"stable assay firefly, run 1 (luminescence)":5.69e5}
{"Target gene":"CG14417","dsRNA":"DRSC18638","stable assay Renilla, run 1 (luminescence)":7003,"stable assay firefly, run 1 (luminescence)":4.63e5}
{"Target gene":"SsRbeta","dsRNA":"DRSC11290","stable assay Renilla, run 1 (luminescence)":7588,"stable assay firefly, run 1 (luminescence)":2.87e5}
{"Target gene":"CG32436","dsRNA":"DRSC11683","stable assay Renilla, run 1 (luminescence)":6175,"stable assay firefly, run 1 (luminescence)":3.70e5}
{"Target gene":"CG32436","dsRNA":"DRSC11796","stable assay Renilla, run 1 (luminescence)":6814,"stable assay firefly, run 1 (luminescence)":4.02e5}
{"Target gene":"CG13738","dsRNA":"DRSC10065","miRNA reporter change":"reporter ratio lowered past the hit cutoff","stable assay Renilla, run 1 (luminescence)":9484,"stable assay firefly, run 1 (luminescence)":5.27e5}
{"Target gene":"CG14693","dsRNA":"DRSC14916","stable assay Renilla, run 1 (luminescence)":8072,"stable assay firefly, run 1 (luminescence)":4.81e5}
{"Target gene":"CG4293","dsRNA":"DRSC18557","stable assay Renilla, run 1 (luminescence)":7498,"stable assay firefly, run 1 (luminescence)":5.01e5}
{"Target gene":"Rab35","dsRNA":"DRSC20691","stable assay Renilla, run 1 (luminescence)":5692,"stable assay firefly, run 1 (luminescence)":2.61e5}
{"Target gene":"CG31347","dsRNA":"DRSC21582","stable assay Renilla, run 1 (luminescence)":10979,"stable assay firefly, run 1 (luminescence)":5.97e5}
{"Target gene":"ich","dsRNA":"DRSC12715","stable assay Renilla, run 1 (luminescence)":5108,"stable assay firefly, run 1 (luminescence)":3.12e5}
{"Target gene":"ich","dsRNA":"DRSC14448","stable assay Renilla, run 1 (luminescence)":6632,"stable assay firefly, run 1 (luminescence)":4.14e5}
{"Target gene":"CG13578","dsRNA":"DRSC04214","stable assay Renilla, run 1 (luminescence)":6344,"stable assay firefly, run 1 (luminescence)":3.94e5}
{"Target gene":"Vmat","dsRNA":"DRSC06961","stable assay Renilla, run 1 (luminescence)":8311,"stable assay firefly, run 1 (luminescence)":4.25e5}
{"Target gene":"Vmat","dsRNA":"DRSC06962","stable assay Renilla, run 1 (luminescence)":5811,"stable assay firefly, run 1 (luminescence)":3.50e5}
{"Target gene":"Vmat","dsRNA":"DRSC22223","stable assay Renilla, run 1 (luminescence)":8439,"stable assay firefly, run 1 (luminescence)":5.24e5}
{"Target gene":"Eps-15","dsRNA":"DRSC04288","stable assay Renilla, run 1 (luminescence)":11544,"stable assay firefly, run 1 (luminescence)":2.29e6}
{"Target gene":"CG31054 (retired record)","dsRNA":"DRSC22134","stable assay Renilla, run 1 (luminescence)":8623,"stable assay firefly, run 1 (luminescence)":6.48e5}

2 of these entries, set out differently:
CG32436 [DRSC11796] — stable assay Renilla, run 1 (luminescence): 6814; stable assay firefly, run 1 (luminescence): 4.02e5
CG13738 [DRSC10065] — miRNA reporter change: reporter ratio lowered past the hit cutoff; stable assay Renilla, run 1 (luminescence): 9484; stable assay firefly, run 1 (luminescence): 5.27e5

Further reagents:
{"Target gene":"CG8475","dsRNA":"DRSC03091","stable assay Renilla, run 1 (luminescence)":98118,"stable assay firefly, run 1 (luminescence)":2.58e5}
{"Target gene":"Vha14-1","dsRNA":"DRSC07571","stable assay Renilla, run 1 (luminescence)":6654,"stable assay firefly, run 1 (luminescence)":4.01e5}
{"Target gene":"Ge-1","dsRNA":"DRSC02938","stable assay Renilla, run 1 (luminescence)":6979,"stable assay firefly, run 1 (luminescence)":3.83e5}
{"Target gene":"CG13026","dsRNA":"DRSC09906","stable assay Renilla, run 1 (luminescence)":7554,"stable assay firefly, run 1 (luminescence)":4.05e5}
{"Target gene":"Vha13","dsRNA":"DRSC16895","stable assay Renilla, run 1 (luminescence)":6611,"stable assay firefly, run 1 (luminescence)":3.40e5}
{"Target gene":"CG6329","dsRNA":"DRSC06976","stable assay Renilla, run 1 (luminescence)":8022,"stable assay firefly, run 1 (luminescence)":4.07e5}
{"Target gene":"CG13877 + pyx","dsRNA":"DRSC08347","stable assay Renilla, run 1 (luminescence)":6103,"stable assay firefly, run 1 (luminescence)":3.66e5}
{"Target gene":"CG13926","dsRNA":"DRSC08395","stable assay Renilla, run 1 (luminescence)":6188,"stable assay firefly, run 1 (luminescence)":3.44e5}
{"Target gene":"CG4009","dsRNA":"DRSC15536","stable assay Renilla, run 1 (luminescence)":7122,"stable assay firefly, run 1 (luminescence)":3.48e5}
{"Target gene":"CG10184","dsRNA":"DRSC14204","stable assay Renilla, run 1 (luminescence)":9258,"stable assay firefly, run 1 (luminescence)":3.63e5}
